According to paper doi:10.1101/2025.05.16.654284 (bioRxiv, 2025):
Numbering of substitutions follows the chain as printed. Like-named read-outs stand apart in the source and are kept apart here. Results are given in words; binding and its absence hold for the method and conditions named. For some assays here: In cells and extracts the contact can be indirect. Some entries that bind do so weakly or less than the wild type.

T1: YbbA (E. coli) (UniProt P0A9T8)
T1 sequence: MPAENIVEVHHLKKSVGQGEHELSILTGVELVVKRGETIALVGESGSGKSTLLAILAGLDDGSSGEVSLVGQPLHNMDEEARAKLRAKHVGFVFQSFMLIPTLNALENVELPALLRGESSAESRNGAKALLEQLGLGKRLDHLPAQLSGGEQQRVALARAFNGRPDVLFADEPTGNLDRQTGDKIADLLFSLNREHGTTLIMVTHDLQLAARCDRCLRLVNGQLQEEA

T2: YbbP (E. coli, UniProt P77504 1-804)
T2 sequence: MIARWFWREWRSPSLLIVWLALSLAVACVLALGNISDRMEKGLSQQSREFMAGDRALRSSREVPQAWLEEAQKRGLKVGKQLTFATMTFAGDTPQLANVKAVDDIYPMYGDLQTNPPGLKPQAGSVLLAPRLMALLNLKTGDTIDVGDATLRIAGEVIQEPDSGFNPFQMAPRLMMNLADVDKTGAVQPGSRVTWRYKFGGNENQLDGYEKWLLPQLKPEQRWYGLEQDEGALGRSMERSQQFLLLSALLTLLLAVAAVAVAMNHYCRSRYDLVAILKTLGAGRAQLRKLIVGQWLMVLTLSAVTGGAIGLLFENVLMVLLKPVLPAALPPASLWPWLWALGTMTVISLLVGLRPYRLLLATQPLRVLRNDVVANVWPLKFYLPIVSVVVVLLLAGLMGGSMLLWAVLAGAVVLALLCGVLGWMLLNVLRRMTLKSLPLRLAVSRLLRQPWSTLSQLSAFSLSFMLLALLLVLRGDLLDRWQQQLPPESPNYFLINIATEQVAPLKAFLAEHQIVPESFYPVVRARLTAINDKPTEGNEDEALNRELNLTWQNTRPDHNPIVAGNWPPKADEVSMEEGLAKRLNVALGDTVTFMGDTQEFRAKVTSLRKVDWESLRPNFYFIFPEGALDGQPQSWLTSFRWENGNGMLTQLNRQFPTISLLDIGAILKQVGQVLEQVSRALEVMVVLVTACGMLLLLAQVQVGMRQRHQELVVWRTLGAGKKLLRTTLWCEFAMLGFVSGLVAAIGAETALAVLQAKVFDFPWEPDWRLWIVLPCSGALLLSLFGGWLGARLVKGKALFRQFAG

T3: YbbAP ABC transporter (E. coli) (UniProt P0A9T8+P77504)
T3 sequence 1: T1 sequence
T3 sequence 2: T2 sequence

B1: YbbP (protein, UniProt P77504 1-804)
chain: T2 sequence
B2: YbbA (natural protein, E. coli)
chain: T1 sequence
B3: TesA (enzyme, UniProt P0ADA1 27-208)
chain: ADTLLILGDSLSAGYRMSASAAWPALLNDKWQSKTSVVNASISGDTSQQGLARLPALLKQHQPRWVLVELGGNDGLRGFQPQQTEQTLRQILQDVKAANAEPLLMQIRLPANYGRRYNEAFSAIYPKLAKEFDVPLLPFFMEEVYLKPQWMQDDGIHPNRDAQPFIADWMAKQLQPLVNHDS
B4: TesA Ser36Ala (enzyme, E. coli, UniProt P0ADA1 27-208, looked up)
chain: B3 chain with S10A

Columns and labels:
YbbA (E. coli) = molecular target: T1, YbbA (E. coli); experiment: pull-down
YbbP = molecular target: T2, YbbP; experiment: cryo-EM structure
[1] = molecular target: T3, YbbAP ABC transporter (E. coli); experiment: pull-down
[2] = molecular target: T3, YbbAP ABC transporter (E. coli); experiment: cryo-EM structure

Row | Binder | binding (YbbP) | binding [1] | other results
1 | B1 |  |  | binding (YbbA (E. coli)): binds
2 | B2 | binds |  | binding (YbbP; record 2): binds; binding (YbbP; record 3): binds
3 | B3 |  | binds | 
4 | B4 | binds | binds | binding [2]: binds
